According to article PMC12670160, “A drug-repurposing screen of FDA- and EMA-approved drugs identifies two NF-κB inhibitors active against eumycetoma” (Journal of Antimicrobial Chemotherapy, 2025):
Structures can show the parent of a compound that is named as a salt. In all, about 5,300 compounds went through this assay and about 130 (2.5%) showed an effect of 50% or more. Some of the results follow.

system: M. mycetomatis strain mm55; details: primary screen, metabolic activity vs growth control; 96 h, 2 µM; inhibitor

Structure (SMILES)	% viability
C[C@H]1O[C@@H](n2cc(F)c(=O)[nH]c2=O)[C@H](O)[C@@H]1O [ONC0000605, doxifluridine]	82.17%
Cc1ccc(Nc2ncc3c(n2)N(C)C(=O)N(c2cc(NC(=O)c4cccc(C(F)(F)F)c4)ccc2C)C3)cn1 [ONC0003029, gnf7]	82.72%
C[N+]1([O-])C2CCC1CC(OC(=O)C(CO)c1ccccc1)C2 (stereo not shown) [ONC0004212, atropine oxide]	82.92%
CCN1CCCC(OC(=O)C(c2ccccc2)c2ccccc2)C1 (stereo not shown) [ONC0004204, piperidolate hydrochloride]	59.78%
Nc1ccc(C(=O)O)cc1 [ONC0000284, potassium paminobenzoate]	77.48%
O=C(O)C1=CO[C@@H](O[C@@H]2O[C@H](CO)[C@@H](O)[C@H](O)[C@H]2O)[C@@H]2C(CO)=CC[C@H]12 [ONC0004954, geniposidic acid]	64.57%
CCCCCNC(=N)N/N=C/c1c[nH]c2ccc(OC)cc12 [ONC0003948, tegaserod maleate]	68.4%
NS(=O)(=O)c1cc(Cl)c(Cl)c(S(N)(=O)=O)c1 [ONC0005275, dichlorphenamide diclofenamide]	137.6%
CS(=O)(=O)c1ccc(-c2cnc(N)c(C(=O)Nc3ccccc3)n2)cc1 [ONC0004547, ve821]	76.73%
COc1c(C)c2c(c(O)c1C/C=C(\C)CCC(=O)O)C(=O)OC2 [ONC0000625, mycophenolic acid]	92.92%
O=C(Oc1ccccc1C(=O)O)c1ccccc1O [ONC0003314, salsalate]	76.16%
O=C(O)c1ccc(S(=O)(=O)N(Cl)Cl)cc1 [ONC0000597, halazone]	77.44%
CC[C@@]1(C2O[C@@H](C3O[C@@](O)(CO)[C@H](C)C[C@@H]3C)C[C@@H]2C)CC[C@H]([C@]2(C)CC[C@]3(C[C@H](O)[C@@H](C)[C@@H]([C@@H](C)[C@@H](OC)[C@H](C)C(=O)O)O3)O2)O1 (stereo partly shown) [ONC0004087, monensin sodium]	133.1%
O=[N+]([O-])c1cn2c(n1)OC[C@@H](OCc1ccc(-c3ccc(OC(F)(F)F)cc3)nc1)C2 [ONC0001032, tba354]	76.09%
O=C(NCCN1CCOCC1)c1ccc(Cl)cc1 [ONC0004576, moclobemide ro 111163]	83.02%
O=C(c1ccc(CN2CCOCC2)cc1)N1CCN(C2CC2)CC1 [ONC0001030, bavisant dihydrochloride hydrate]	91.92%
Cc1cc(Cl)ccc1OCCCC(=O)NO [ONC0004783, droxinostat]	69.65%
Cc1ccc(-n2sc(=O)n(Cc3ccc(F)cc3)c2=O)cc1 [ONC0005259, ccg 50014]	100.7%
[2H]C([2H])([2H])C(=O)Nc1c(I)c(C(=O)O)c(I)c(C(=O)NC)c1I [ONC0002149, iothalamic acidd3]	66.44%
COc1cccc(OC)c1-c1cc(C(=O)N[C@@H](CC(C)C)C(=O)O)nn1-c1ccnc2cc(Cl)ccc12 [ONC0003540, tcntr117]	96.98%

Structure (SMILES)	% viability
O=C(c1ccc(/C=C/c2n[nH]c3ccccc23)cc1)N1CCNCC1 [ONC0004863, kw 2449]	137.7%
Cc1cccc(NC(=O)N[C@@H]2N=C(c3ccccc3)c3ccccc3N(CC(=O)c3ccccc3C)C2=O)c1 [ONC0005568, ym022]	88.21%
C/C(=C\C(=O)Nc1ccccc1C(=O)O)c1ccc2ccccc2c1 [ONC0004705, bibr1532]	122.5%
C=CCNC(=O)c1cc([N+](=O)[O-])cc2c(=O)[nH]c(Nc3ccc(Cl)c(Cl)c3)nc12 [ONC0001510, az10417808]	123.7%
Cc1onc(-c2c(F)cccc2Cl)c1C(=O)N[C@@H]1C(=O)N2[C@@H]1SC(C)(C)[C@@H]2C(=O)O [ONC0005497, flucloxacillin]	108.2%
C[C@H](Cc1cc2c(c(C(N)=O)c1)N(CCCO)CC2)NCCOc1ccccc1OCC(F)(F)F [ONC0004909, silodosin]	131.4%
NS(=O)(=O)OC[C@@H]1C[C@@H](n2ccc3c(N[C@H]4CCc5ccccc54)ncnc32)C[C@@H]1O [ONC0001277, pevonedistat hydrochloride]	68.15%
O=C(CNC(=O)c1cccc(C(F)(F)F)c1)N[C@@H]1CCN(Cc2ccc(Cl)cc2)C1 [ONC0002608, teijincompound1]	76.98%
CCCC(CCC)C(=O)NCc1ccc2c(cnn2-c2ccccc2OC)c1 [ONC0004484, m25]	125.7%
CN(C)CCCSC(=N)N [ONC0002709, dimaprit]	76.78%
CN(C)CCOc1ccc(-c2nc(-c3ccncc3)c(-c3ccc4c(c3)CC/C4=N\O)[nH]2)cc1 [ONC0004948, sb590885]	61.96%
NCCNCCNCCN [ONC0004085, trientine hydrochloride]	111.6%
N=C(N)NCc1cccc(I)c1 [ONC0003466, iobenguane]	63.28%
Cc1ccnc(NS(=O)(=O)c2ccc(N)cc2)n1 [ONC0000569, sulfamerazine]	86.54%
O=C(CC12CC3CC(CC(C3)C1)C2)Nc1cccc2nc(NCCNCCO)ccc12 [ONC0000876, az10606120]	62.75%
C[C@H]1NC(=O)NC1=O [ONC0002790, d5methylhydantoin]	119%
CCC[S+]([O-])c1ccc2[nH]c(NC(=O)OC)nc2c1 (stereo not shown) [ONC0004848, albendazole oxide ricobendazole]	129%
NC(=O)OCC(COC(N)=O)c1ccccc1 [ONC0001418, felbamate]	64.05%
COC(=O)Nc1nc2cc(SC(C)C)ccc2[nH]1 [ONC0002907, methiazole]	79.6%
[O-][n+]1cccc(CO)c1 [ONC0002748, mepiroxol]	76.99%

Look-ups from the list.
COC(=O)Nc1nc2cc(SC(C)C)ccc2[nH]1 [ONC0002907, methiazole] | % viability: 79.6%
NS(=O)(=O)OC[C@@H]1C[C@@H](n2ccc3c(N[C@H]4CCc5ccccc54)ncnc32)C[C@@H]1O [ONC0001277, pevonedistat hydrochloride] | % viability: 68.15%
